According to patent US11648287B2, “Composition for the treatment of intracellular bacterial infection” (priority 2017, dated 2023):

System: RAW 264.7 macrophage cell line
Assay: Fluorescence microscopy of intracellular localization of vancomycin and TPCS2a
Type: cell-based, mouse
Conditions: 1 μg/ml TPCS2a and 50 μg/mL BODIPY FL-Vancomycin for 18 h

SMILES: CN[C@H](CC(C)C)C(=O)N[C@H]1C(=O)N[C@@H](CC(N)=O)C(=O)N[C@H]2C(=O)N[C@H]3C(=O)N[C@H](C(=O)N[C@H](C(=O)O)c4cc(O)cc(O)c4-c4cc3ccc4O)[C@H](O)c3ccc(c(Cl)c3)Oc3cc2cc(c3O[C@@H]2O[C@H](CO)[C@@H](O)[C@H](O)[C@H]2O[C@H]2C[C@](C)(N)[C@H](O)[C@H](C)O2)Oc2ccc(cc2Cl)[C@H]1O [vancomycin]
- intracellular localization (after illumination for 120 s): released from the endocytic vesicles
- intracellular localization (before illumination): localized in small spots inside the cells, corresponding to endocytic vesicles
